Test results as given in publication PMC10095973.
No constants are given. Whether binding was seen depends on the method and setting. Binding seen in cells or lysates may run through a third protein. Binding calls can cover weak binding; strength is not graded here. Tags and fused reporters may be left off the sequences shown.

By UniProt entry, the sequences of proteins in these tests, tags left out. Where a name states a change or a piece, a line headed by the entry shows the natural chain unless it says otherwise.
UniProt Q8LBP6: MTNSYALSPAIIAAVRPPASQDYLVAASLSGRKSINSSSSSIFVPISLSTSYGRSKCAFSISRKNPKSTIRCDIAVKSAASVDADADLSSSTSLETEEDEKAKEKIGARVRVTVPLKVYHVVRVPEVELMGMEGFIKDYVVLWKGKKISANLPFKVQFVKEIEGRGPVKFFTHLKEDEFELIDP
UniProt O04090: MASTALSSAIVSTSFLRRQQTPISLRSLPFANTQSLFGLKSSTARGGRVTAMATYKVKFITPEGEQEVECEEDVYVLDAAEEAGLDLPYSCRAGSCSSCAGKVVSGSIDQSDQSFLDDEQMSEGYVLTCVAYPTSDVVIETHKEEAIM
UniProt Q9SJ89: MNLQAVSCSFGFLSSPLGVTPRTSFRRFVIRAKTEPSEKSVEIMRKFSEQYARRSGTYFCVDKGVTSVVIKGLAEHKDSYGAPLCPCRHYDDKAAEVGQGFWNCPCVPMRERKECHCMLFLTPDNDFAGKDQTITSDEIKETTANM

target: T1, Arabidopsis thaliana purple acid phosphatase 2 (BiFC fusion) (Arabidopsis thaliana) (UniProt Q9LMG7); assay: split reporter; in vivo bimolecular fluorescence complementation (BiFC); host not stated
T1 sequence: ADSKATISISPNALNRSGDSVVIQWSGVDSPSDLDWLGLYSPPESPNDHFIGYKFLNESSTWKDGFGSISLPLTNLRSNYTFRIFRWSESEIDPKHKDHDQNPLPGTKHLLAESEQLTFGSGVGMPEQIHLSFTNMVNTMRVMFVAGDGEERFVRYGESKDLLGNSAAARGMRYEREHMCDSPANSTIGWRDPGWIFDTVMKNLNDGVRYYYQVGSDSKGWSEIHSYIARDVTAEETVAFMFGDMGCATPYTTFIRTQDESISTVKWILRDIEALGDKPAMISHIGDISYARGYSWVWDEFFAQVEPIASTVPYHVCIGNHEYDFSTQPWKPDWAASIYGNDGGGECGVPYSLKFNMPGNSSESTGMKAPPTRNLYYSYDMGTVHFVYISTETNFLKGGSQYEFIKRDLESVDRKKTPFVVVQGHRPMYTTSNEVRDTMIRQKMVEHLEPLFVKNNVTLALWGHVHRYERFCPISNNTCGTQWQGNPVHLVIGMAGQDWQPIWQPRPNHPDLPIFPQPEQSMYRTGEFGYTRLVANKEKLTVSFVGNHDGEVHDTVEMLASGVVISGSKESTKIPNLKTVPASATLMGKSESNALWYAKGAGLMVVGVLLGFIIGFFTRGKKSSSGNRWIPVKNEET

binding, binds:
ferredoxin/thioredoxin reductase subunit A2 (BiFC fusion) (from UniProt Q8LBP6)
Fd1 (BiFC fusion) (from UniProt O04090)
FTRB (BiFC fusion) (from UniProt Q9SJ89)
